Patent US6987089
No constants are given. Whether binding was seen depends on the method and setting. Some entries that bind do so weakly or less than the wild type.

The chains behind the UniProt entries cited, without tags or fusion partners. Where a name states a change or a piece, a line headed by the entry shows the natural chain unless it says otherwise.
UniProt P0A7C2: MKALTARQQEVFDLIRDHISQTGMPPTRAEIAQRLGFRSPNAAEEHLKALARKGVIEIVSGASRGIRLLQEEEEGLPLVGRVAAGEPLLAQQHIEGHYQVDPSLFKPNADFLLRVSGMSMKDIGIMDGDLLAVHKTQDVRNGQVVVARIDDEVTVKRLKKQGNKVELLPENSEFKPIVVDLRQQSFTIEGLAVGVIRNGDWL
UniProt O54788: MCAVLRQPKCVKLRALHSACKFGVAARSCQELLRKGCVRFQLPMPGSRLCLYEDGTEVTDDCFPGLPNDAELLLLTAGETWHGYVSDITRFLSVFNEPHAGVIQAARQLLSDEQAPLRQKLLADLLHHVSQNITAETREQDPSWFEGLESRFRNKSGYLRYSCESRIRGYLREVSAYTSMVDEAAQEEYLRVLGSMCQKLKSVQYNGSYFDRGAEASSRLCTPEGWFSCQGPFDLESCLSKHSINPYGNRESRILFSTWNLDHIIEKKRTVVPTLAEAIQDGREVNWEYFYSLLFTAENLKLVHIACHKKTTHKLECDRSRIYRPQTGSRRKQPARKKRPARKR
UniProt Q9UK41: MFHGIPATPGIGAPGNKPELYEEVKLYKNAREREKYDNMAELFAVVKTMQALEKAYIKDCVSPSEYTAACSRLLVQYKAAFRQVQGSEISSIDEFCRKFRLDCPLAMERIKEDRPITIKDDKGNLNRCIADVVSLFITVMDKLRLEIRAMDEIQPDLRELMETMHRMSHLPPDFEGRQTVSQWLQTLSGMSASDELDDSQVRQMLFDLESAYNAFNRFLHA

Target: mouse CAD as yeast 2-hybrid bait (in the same manner as Example 1-1) (mouse) (UniProt P0A7C2+O54788)
Assay: yeast 2-hybrid screen, mouse CAD as bait, human fetal brain cDNA library

binding: binds
Substance: human CIA clones from the human fetal brain cDNA library (yeast 2-hybrid prey) (from UniProt Q9UK41 1-221)
